Measurements reported in US20140106352A1.
Results are given in words; binding and its absence hold for the method and conditions named. Some entries that bind do so weakly or less than the wild type.

Chains of the proteins cited; added tags and fusions are not shown. Residues count along the entry.
UniProt Q27J81, residues 2-1249: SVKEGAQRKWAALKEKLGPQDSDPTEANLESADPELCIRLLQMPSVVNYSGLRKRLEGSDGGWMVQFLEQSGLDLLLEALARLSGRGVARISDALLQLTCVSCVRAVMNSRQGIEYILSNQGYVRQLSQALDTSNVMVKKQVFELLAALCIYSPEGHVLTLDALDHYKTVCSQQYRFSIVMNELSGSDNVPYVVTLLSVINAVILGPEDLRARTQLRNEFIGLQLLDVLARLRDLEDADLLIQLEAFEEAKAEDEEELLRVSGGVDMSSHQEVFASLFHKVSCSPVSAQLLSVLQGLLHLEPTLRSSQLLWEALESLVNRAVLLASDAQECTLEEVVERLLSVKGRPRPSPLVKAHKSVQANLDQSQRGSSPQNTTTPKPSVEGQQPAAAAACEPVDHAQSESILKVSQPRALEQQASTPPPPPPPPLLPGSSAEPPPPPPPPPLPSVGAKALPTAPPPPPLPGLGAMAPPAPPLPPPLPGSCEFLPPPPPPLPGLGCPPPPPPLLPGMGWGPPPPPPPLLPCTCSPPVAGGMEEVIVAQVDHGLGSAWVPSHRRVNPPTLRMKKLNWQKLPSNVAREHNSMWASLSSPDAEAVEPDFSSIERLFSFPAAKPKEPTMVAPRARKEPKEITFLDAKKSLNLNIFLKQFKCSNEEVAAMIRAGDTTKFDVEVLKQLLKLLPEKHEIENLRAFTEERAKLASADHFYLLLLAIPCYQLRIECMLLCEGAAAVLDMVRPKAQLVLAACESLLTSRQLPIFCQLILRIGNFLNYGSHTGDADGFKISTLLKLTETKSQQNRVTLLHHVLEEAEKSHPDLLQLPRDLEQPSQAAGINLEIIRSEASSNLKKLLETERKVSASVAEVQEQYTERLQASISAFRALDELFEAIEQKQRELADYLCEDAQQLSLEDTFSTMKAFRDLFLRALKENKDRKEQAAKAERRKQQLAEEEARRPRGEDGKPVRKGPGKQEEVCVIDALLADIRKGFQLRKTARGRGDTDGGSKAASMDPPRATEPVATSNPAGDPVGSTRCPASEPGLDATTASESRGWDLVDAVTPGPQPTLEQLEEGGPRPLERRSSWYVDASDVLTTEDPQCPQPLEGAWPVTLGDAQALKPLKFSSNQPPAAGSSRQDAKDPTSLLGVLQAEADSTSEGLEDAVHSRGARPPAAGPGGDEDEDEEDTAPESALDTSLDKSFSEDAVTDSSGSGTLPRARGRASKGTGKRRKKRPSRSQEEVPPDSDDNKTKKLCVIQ

Target: INF2 (human) (UniProt Q27J81)
Assay: only co-localisation by immunofluorescence in immortalized human podocytes (FIG. 3); no direct binding assay

B1: anillin (ANLN), wild-type, endogenous in immortalized human podocytes (protein)
chain: MDPFTEKLLERTRARRENLQRKMAERPTAAPRSMTHAKRARQPLSEASNQQPLSGGEEKSCTKPSPSKKRCSDNTEVEVSNLENKQPVESTSAKSCSPSPVSPQVQPQAADTISDSVAVPASLLGMRRGLNSRLEATAASSVKTRMQKLAEQRRRWDNDDMTDDIPESSLFSPMPSEEKAASPPRPLLSNASATPVGRRGRLANLAATICSWEDDVNHSFAKQNSVQEQPGTACLSKFSSASGASARINSSSVKQEATFCSQRDGDASLNKALSSSADDASLVNASISSSVKATSPVKSTTSITDAKSCEGQNPELLPKTPISPLKTGVSKPIVKSTLSQTVPSKGELSREICLQSQSKDKSTTPGGTGIKPFLERFGERCQEHSKESPARSTPHRTPIITPNTKAIQERLFKQDTSSSTTHLAQQLKQERQKELACLRGRFDKGNIWSAEKGGNSKSKQLETKQETHCQSTPLKKHQGVSKTQSLPVTEKVTENQIPAKNSSTEPKGFTECEMTKSSPLKITLFLEEDKSLKVTSDPKVEQKIEVIREIEMSVDDDDINSSKVINDLFSDVLEEGELDMEKSQEEMDQALAESSEEQEDALNISSMSLLAPLAQTVGVVSPESLVSTPRLELKDTSRSDESPKPGKFQRTRVPRAESGDSLGSEDRDLLYSIDAYRSQRFKETERPSIKQVIVRKEDVTSKLDEKNNAFPCQVNIKQKMQELNNEINMQQTVIYQASQALNCCVDEEHGKGSLEEAEAERLLLIATGKRTLLIDELNKLKNEGPQRKNKASPQSEFMPSKGSVTLSEIRLPLKADFVCSTVQKPDAANYYYLIILKAGAENMVATPLASTSNSLNGDALTFTTTFTLQDVSNDFEINIEVYSLVQKKDPSGLDKKKKTSKSKAITPKRLLTSITTKSNIHSSVMASPGGLSAVRTSNFALVGSYTLSLSSVGNTKFVLDKVPFLSSLEGHIYLKIKCQVNSSVEERGFLTIFEDVSGFGAWHRRWCVLSGNCISYWTYPDDEKRKNPIGRINLANCTSRQIEPANREFCARRNTFELITVRPQREDDRETLVSQCRDTLCVTKNWLSADTKEERDLWMQKLNQVLVDIRLWQPDACYKPIGKP
- binding: binds
